Test results: patent US20240409598A1 (Janssen Biotech, Inc., priority 2021, published 2024)

Experiment: general procedure: Fmoc solid-phase peptide synthesis; Rink Amide MBHA resin (100-200 mesh, 0.57 mmol/g or 0.66 mmol/g) for C-terminal amides; pre-loaded Wang resin for C-term; HBTU/DIEA; PyAOP/DIEA for some couplings; Oxyma/DIC (microwave); HATU/DIEA in Ex
Conditions: for oxidative folding yield: oxidative folding step, for this step
[1] = TFA salt, counterion exchange to acetate for SEQ ID NO: 1, one disulfide bridge, sequence written open
[2] = whole synthesis, Analytical RP-HPLC, Gemini C18 column (4.6 mm x 250 mm), TFA salt, counterion exchange to acetate for SEQ ID NO: 1, one disulfide bridge, sequence written open
[3] = whole synthesis, overall, TFA salt, counterion exchange to acetate for SEQ ID NO: 1, one disulfide bridge, sequence written open
[4] = whole synthesis, TFA salt, counterion exchange to acetate for SEQ ID NO: 1, thioether ring, sequence written open

Row | Substance | final HPLC purity (whole synthesis, Analytical RP-HPLC, Gemini C18 column (4.6 mm x 250 mm), acetate) [%] | oxidative folding yield [1] [%] | final purity (method not given) [2] [%] | isolated yield [3] [%] | final purity (method not given) (whole synthesis, Analytical RP-HPLC, Gemini C18 column (4.6 mm x 250 mm), TFA salt, counterion exchange to acetate for SEQ ID NO: 1, thioether ring, sequence written open) [%] | crude yield [4] [%] | isolated yield [4] [%]
1 | Ac-[Pen]*-N-T-[W (7-Me)]-[Lys(Ac)]-[Pen]*-Phe [4-(2-aminoethoxy)]-[2-Nal]-[THP]-E-N-[3-Pal]-Sarc-NH2 (*Pen-Pen form disulfide bond) | >95 |  |  |  |  |  | 
2 | MeCO-Pen-N-T-7MeW-K(Ac)-Pen-AEF(G)-2Nal-THP-E-N-3Pya-Sar-CONH2 |  | 31.0 | 96.4 | 25.5 |  |  | 
3 | MeCO-r-Abu (1)-N-T-W-K(Ac)-aMeC (1)-AEF-2Nal-THP-E-N-3Pya-Sar-CONH2 |  |  |  |  | 95.2 | 75.7 | 6.72
4 | MeCO-r-Pen-N-T-7MeW-K(Ac)-Pen-AEF-2Nal-THP-E-N-5MePyridinAla-Sar-CONH2 |  | 17.0 | 96.4 | 14.8 |  |  | 
